Experimental data taken from article PMC3797745.
No constants are given. Whether binding was seen depends on the method and setting. In cells and extracts the contact can be indirect. Some binding calls cover weakened binding; strength is not graded here.

By UniProt entry, the sequences of proteins in these tests, tags left out. Where a name states a change or a piece, a line headed by the entry shows the natural chain unless it says otherwise.
UniProt Q62976: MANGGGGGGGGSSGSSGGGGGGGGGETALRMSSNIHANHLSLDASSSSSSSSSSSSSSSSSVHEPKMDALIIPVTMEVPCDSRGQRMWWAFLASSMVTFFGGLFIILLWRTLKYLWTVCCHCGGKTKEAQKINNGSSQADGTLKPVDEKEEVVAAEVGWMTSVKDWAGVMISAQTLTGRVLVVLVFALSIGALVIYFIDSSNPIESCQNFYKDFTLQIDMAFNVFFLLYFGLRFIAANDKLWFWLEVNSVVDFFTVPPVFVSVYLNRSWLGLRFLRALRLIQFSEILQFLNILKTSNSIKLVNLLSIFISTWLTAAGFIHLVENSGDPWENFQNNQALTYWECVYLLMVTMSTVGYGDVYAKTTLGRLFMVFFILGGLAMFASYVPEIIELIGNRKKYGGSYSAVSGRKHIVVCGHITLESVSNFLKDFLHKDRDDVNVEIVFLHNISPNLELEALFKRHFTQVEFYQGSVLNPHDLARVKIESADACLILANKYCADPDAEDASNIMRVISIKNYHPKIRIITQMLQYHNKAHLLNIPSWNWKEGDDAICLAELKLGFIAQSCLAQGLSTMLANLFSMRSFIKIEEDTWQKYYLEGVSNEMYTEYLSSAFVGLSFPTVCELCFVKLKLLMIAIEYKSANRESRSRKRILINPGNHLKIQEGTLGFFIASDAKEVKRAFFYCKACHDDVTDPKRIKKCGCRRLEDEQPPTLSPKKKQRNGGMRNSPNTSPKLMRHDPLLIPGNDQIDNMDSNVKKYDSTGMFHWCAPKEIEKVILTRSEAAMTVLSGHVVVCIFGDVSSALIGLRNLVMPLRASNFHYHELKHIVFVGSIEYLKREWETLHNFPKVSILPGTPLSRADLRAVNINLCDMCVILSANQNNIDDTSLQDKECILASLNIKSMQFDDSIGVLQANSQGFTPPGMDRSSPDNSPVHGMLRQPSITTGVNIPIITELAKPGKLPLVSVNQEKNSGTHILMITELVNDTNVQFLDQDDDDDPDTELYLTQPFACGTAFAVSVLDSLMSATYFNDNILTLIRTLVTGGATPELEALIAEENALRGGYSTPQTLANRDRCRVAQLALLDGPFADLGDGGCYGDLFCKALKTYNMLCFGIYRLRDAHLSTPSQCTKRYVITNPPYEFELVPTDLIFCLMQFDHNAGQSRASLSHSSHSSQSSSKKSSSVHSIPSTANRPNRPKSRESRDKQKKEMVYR
UniProt O35433: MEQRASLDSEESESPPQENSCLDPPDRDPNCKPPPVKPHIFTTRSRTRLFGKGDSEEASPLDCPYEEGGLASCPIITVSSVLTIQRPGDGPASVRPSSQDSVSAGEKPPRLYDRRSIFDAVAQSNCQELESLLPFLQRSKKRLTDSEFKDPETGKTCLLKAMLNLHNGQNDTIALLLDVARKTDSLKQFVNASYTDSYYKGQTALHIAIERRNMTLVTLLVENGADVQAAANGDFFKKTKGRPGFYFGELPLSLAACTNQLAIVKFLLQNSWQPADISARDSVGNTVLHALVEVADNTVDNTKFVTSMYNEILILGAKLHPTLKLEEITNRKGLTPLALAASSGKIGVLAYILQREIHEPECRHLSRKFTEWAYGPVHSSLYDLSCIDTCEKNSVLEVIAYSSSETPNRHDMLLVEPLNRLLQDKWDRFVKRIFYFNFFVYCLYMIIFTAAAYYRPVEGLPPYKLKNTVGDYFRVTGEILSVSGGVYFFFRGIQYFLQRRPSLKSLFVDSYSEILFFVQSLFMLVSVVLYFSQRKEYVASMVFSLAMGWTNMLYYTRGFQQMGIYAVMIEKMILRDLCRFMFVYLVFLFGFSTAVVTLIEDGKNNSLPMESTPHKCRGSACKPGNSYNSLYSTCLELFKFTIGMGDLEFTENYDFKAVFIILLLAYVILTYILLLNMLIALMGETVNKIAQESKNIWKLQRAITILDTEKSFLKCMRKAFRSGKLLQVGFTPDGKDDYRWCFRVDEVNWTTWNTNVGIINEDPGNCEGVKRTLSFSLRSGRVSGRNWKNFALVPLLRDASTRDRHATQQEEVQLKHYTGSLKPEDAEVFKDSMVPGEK
UniProt Q08460: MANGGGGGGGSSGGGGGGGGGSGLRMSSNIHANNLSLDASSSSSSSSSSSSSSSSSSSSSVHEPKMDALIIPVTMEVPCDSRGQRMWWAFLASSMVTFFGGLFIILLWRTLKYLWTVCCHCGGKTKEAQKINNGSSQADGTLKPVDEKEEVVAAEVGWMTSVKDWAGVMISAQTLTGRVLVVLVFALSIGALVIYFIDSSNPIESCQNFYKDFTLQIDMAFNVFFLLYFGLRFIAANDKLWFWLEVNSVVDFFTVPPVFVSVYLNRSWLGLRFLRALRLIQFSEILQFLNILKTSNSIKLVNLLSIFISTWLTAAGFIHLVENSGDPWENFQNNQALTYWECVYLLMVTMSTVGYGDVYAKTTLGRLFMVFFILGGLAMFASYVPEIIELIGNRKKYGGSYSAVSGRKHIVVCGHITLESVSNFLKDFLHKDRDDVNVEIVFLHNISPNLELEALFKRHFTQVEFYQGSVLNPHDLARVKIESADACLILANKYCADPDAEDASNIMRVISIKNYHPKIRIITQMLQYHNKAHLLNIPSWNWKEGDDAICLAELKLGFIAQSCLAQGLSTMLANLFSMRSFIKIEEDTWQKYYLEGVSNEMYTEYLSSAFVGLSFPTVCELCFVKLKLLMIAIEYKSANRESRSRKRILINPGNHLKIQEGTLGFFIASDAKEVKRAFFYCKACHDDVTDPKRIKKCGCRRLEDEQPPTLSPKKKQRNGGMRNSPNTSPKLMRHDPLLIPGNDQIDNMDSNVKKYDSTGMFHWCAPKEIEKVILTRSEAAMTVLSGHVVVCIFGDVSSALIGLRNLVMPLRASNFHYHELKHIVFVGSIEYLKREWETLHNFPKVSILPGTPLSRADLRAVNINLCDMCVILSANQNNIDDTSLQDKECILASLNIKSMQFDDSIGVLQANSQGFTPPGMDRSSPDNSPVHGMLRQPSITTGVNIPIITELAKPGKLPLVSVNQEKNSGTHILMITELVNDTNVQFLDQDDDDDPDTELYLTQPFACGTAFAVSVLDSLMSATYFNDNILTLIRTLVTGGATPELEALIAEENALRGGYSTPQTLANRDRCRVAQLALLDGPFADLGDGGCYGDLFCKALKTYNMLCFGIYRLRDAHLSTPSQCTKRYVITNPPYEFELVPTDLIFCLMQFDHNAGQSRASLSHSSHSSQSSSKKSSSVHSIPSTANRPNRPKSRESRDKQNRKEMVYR

What was measured:
[1] = target: Slo1 (endogenous BK channel of rat DRG) (rat (endogenous in DRG)) (UniProt Q62976); test: co-IP; lysates of DRGs from male adult Wistar rats (50 mM Tris-HCl pH 7.4, 50 mM NaCl, 1% Nonidet P-40); anti-Slo1 or anti-TRPV1 prebound dynabeads protein G, 4 °C, 2 hours; immunoblot with anti-TRPV1 or anti-Slo1; IgG-IP as negative control
[2] = target: TRPV1 (endogenous, rat DRG) (rat (endogenous in DRG)) (UniProt O35433); test: as above
[3] = target: Myc-mSlo1 (UniProt Q08460); test: co-IP; lysates of Myc-mSlo1 and TRPV1-HA co-transfected HEK293 cells (50 mM Tris-HCl pH 7.4, 50 mM NaCl, 1% Nonidet P-40); anti-myc or anti-HA prebound dynabeads protein G, 4 °C, 2 hours; immunoblot with anti-HA or anti-myc; IgG-IP as negative control
[4] = target: TRPV1-HA (rat) (UniProt O35433); test: as above

For “TRPV1 (endogenous, rat DRG) (from UniProt O35433 1-838)”, which binding [1] is on record?
Its binding is “binds”.

Which binding [2] does the source give for “Slo1 (endogenous BK channel of rat DRG) (from UniProt Q62976 1-1209)” here?
Its binding is “binds”.

With TRPV1-HA (from UniProt O35433-1 1-838) as the substance, how does the binding [3] read?
Its binding is “binds”.

How did the binding [4] turn out when Myc-mSlo1 (from UniProt Q08460 1-1209) was run?
Its binding is “binds”.
